For at least one entry, the source does not settle the construct or the ends of the probe. At least one result comes from cells or an extract, where the contact may be indirect. No signal at the amounts used counts as a negative. Where a protein sequence is shown, tags need not be part of it.
Legend:
[1] = molecular target: T1, TUT7 wild-type (Flag-tagged, immunopurified) (UniProt Q5VYS8); test: EMSA; conditions: 75 fmol RNA with immunopurified TUT7, 37 °C, 30 min, salt and pH not stated, native PAGE (6% in Methods, 10% in legend), protein in a lysate after overexpression, protein details: N-terminal Flag
T1 sequence (looked up, limits assumed): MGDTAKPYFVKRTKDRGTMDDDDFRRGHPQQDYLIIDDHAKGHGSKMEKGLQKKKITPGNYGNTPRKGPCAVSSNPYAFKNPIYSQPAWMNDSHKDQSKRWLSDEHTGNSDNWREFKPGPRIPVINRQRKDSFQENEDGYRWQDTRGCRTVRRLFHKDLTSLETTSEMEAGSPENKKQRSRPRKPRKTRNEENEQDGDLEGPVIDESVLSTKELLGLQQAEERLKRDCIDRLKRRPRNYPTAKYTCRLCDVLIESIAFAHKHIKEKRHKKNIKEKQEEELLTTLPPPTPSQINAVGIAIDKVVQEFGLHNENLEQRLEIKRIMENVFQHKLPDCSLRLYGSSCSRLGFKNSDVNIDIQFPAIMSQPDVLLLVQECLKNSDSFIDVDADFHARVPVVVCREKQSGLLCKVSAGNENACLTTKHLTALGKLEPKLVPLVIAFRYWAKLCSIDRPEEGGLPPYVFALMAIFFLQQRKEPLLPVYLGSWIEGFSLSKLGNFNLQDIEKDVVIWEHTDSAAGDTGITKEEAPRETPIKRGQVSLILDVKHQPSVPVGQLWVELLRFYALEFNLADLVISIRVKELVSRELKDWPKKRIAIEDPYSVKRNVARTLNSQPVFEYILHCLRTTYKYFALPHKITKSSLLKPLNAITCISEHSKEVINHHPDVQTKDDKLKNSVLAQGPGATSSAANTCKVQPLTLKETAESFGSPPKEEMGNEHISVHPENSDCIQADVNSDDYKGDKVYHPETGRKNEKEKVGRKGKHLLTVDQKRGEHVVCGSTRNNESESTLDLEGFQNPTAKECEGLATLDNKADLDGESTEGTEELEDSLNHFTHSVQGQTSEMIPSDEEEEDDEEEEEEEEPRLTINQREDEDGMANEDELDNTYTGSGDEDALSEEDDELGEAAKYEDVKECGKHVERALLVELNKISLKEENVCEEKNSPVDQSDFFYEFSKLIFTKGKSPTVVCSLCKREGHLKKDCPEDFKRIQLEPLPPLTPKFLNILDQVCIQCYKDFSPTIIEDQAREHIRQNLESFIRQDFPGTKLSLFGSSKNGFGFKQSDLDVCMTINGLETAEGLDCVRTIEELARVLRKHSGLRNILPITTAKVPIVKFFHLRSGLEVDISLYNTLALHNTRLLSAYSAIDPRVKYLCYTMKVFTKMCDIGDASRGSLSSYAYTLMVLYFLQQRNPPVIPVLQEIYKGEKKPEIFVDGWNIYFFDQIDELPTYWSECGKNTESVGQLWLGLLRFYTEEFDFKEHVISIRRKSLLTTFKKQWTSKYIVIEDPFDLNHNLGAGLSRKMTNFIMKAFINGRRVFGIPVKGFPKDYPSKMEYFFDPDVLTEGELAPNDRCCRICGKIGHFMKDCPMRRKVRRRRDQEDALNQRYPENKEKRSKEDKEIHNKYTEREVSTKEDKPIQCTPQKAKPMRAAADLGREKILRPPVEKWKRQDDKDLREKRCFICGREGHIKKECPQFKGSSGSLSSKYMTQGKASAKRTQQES

[2] = molecular target: T1, TUT7 wild-type (Flag-tagged, immunopurified); test: competition with a labelled probe; conditions: 1x or 5x unlabeled RNA vs Cy3 probe N2; 75 fmol RNA with immunopurified TUT7, 37 °C, 30 min; salt and pH not stated; native PAGE (6% in Methods, 10% in legend); protein in a lysate after overexpression; protein details: N-terminal Flag

Row | Sequence | binding result ([1]; SYBR Green II) | binding result [2] | binding result ([1]; Cy3 fluorescence, label: 5' Cy3)
1 | ACAGGUCAGAAGUGAUCACCCUGUUGAUACACAUUGUAUCUCUGUCAUUU [Zc3h12a stem-loop wild-type] | binds | binds | –
2 | AAUAUAUCCUGUUGUCAGGUAUCUGACUUAUGUUGUUCUCUACGAAGAACUGACAAUAUG [Il6 stem-loop wild-type] | no binding | – | –
3 | ACAGGUCAGAAGUGAUCACCCUGUUGAUACACAUUCAUUCUCUGUCAUUU [Zc3h12a stem-loop St2m] | no binding | no binding | –
4 | ACAGGUCAGAAGUGAUCACCCUGUUGAAUGACAUUGUAUCUCUGUCAUUU [Zc3h12a stem-loop St1m] | no binding | no binding | –
5 | ACAGGUCAGAAGUGAUCACCCUGUUGAAUGACAUUCAUUCUCUGUCAUUU [Zc3h12a stem-loop St(1+2)m] | – | binds | –
6 | ACAGGUCAGAAGUGAUCACCCUGUUGAUACACAUUGUAUCUCUGUCAUUU [Cy3-Zc3h12a stem-loop wild-type] | – | – | binds

— publication PMC8241994
